Where a name gives a salt, the structure may show the parent alone. This is one part of the list. Single values are uncertain here, since repeats match poorly.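 Cells: ReNCell VM human fetal ventral-midbrain neural progenitors, differentiated mitogen-free. Blinded raters compared doublecortin-stained (early neurons) or tyrosine hydroxylase-stained (dopaminergic neurons) images with untreated wells, where 0 means no change. After repeats and both raters were averaged, compounds scoring 2 or above became hits for retesting.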
What follows are molecules tested on ReNCell VM (assay: dopaminergic neuron differentiation score (TH+ cell fraction vs untreated, manual image score) (score (0 to 3)); higher = more TH+ dopaminergic neuron differentiation). Settings: library: Natural; 2 uM; 4 weeks; BDNF 10 ng/ml + GDNF 10 ng/ml.

Dopaminergic neuron differentiation score, inactive:
COc1ccc2cnoc(=O)c2c1OC [7,8-dimethoxy-benzo[d][1,2]oxazin-1-one] 0
COc1ccc(-c2cc3ccccc3c(=O)o2)cc1 [3-(4-methoxy-phenyl)-isochromen-1-one] 0
COc1cc(C)c(CCC(C)=CC=CC(C)=O)c(C)c1C 0
COc1ccc(C(=O)Oc2ccc3c(-c4ccc(OC)cc4)cc(=O)oc3c2)cc1 0
C[n+]1cc2c3c(ccc2c2ccc4cc5c(cc4c21)OCO5)OCO3 [sanguinarine] 0

Same assay, conditions: library: Phytochemical; 2 uM; 4 weeks; BDNF 10 ng/ml + GDNF 10 ng/ml

Dopaminergic neuron differentiation score, inactive:
O=c1cc(-c2ccccc2)oc2cc(O)cc(O)c12 [Chrysin] 0
OCc1ccccc1O[C@@H]1O[C@H](CO)[C@@H](O)[C@H](O)[C@H]1O [Salicin] 0
CN1[C@@H](CC(=O)c2ccccc2)CCC[C@H]1C[C@H](O)c1ccccc1 [Lobeline alpha (-) hydrochoride] 0

Same assay, conditions: library: Prestwick; 2 uM; 4 weeks; BDNF 10 ng/ml + GDNF 10 ng/ml

Dopaminergic neuron differentiation score, inactive:
COc1cc(C(=O)NCc2ccc(OCCN(C)C)cc2)cc(OC)c1OC [Trimethobenzamide hydrochloride] 1
CC(=O)N(O)CCCCCNC(=O)CCC(=O)N(O)CCCCCNC(=O)CCC(=O)N(O)CCCCCN [Deferoxamine mesylate] 0
Fc1ccc([C@@H]2CCNC[C@H]2COc2ccc3c(c2)OCO3)cc1 [Paroxetine Hydrochloride] 0

Same assay, conditions: library: Spectrum; 2 uM; 4 weeks; BDNF 10 ng/ml + GDNF 10 ng/ml

Dopaminergic neuron differentiation score, inactive:
C[C@]12CC[C@@H]3c4ccc(O)cc4CC[C@H]3[C@@H]1CC[C@@H]2OC(=O)CCC1CCCC1 0
CC(=O)Oc1cccc2c1C(=O)c1c(OC(C)=O)cc(C(=O)O)cc1C2=O 0
Cc1cnc(C(=O)O)c[n+]1[O-] 0
COc1ccccc1OCC(O)CO (configuration not stated) 0
CN1[C@@H]2CC[C@H]1C[C@@H](OC(=O)C(O)c1ccccc1)C2 (some centres not stated) 0
COc1ccc2[nH]c([S@@+]([O-])Cc3ncc(C)c(OC)c3C)nc2c1 0
O=C(Oc1cccc2cccnc12)c1ccccc1 0
CC(=O)O[C@H]1C(=O)[C@@]2(C)[C@H]([C@H](OC(=O)c3ccccc3)[C@]3(O)C[C@H](OC(=O)[C@H](O)[C@@H](NC(=O)c4ccccc4)c4ccccc4)C(C)=C1C3(C)C)[C@]1(OC(C)=O)CO[C@@H]1C[C@@H]2O 0
CCC(=O)NCC[C@@H]1CCc2ccc3c(c21)CCO3 0
CNC(=O)c1c(I)c(NC(C)=O)c(I)c(C(=O)O)c1I 0
O=C(NCCCN1CCOCC1)c1ccc(Cl)cc1 1
NS(=O)(=O)c1cc2c(cc1Cl)N=C(CSCc1ccccc1)NS2(=O)=O 0
C[C@]12CCC(=O)C=C1CC[C@@H]1[C@@H]2C(=O)C[C@@]2(C)[C@H]1CC[C@]2(O)C(=O)CO 0
C=C1C(=O)O[C@@H]2C[C@@]3(C)CCC[C@H](C)C3=C[C@H]12 0
Clc1ccc2c(c1)CCc1cccnc1C2=C1CCNCC1 0
CC(=O)OCC(=O)[C@@]1(O)CC[C@H]2[C@@H]3C[C@H](C)C4=CC(=O)C=C[C@]4(C)[C@H]3[C@@H](O)C[C@@]21C [6alpha-METHYLPREDNISOLONE ACETATE] 0
OC[C@H]1O[C@@](CO)(O[C@H]2O[C@H](CO)[C@@H](O)[C@H](O)[C@H]2O)[C@@H](O[C@H]2O[C@H](CO)[C@@H](O)[C@H](O)[C@H]2O)[C@@H]1O 0
CCOc1ccc(NC(=O)CC(C)O)cc1 (configuration not stated) 0
O=C(O)CCCC[C@@H]1SC[C@@H]2NC(=O)N[C@@H]21 0
CC1(C)CC[C@]2(C(=O)O)CC[C@]3(C)C(=CCC4[C@@]5(C)CC[C@@H](O)C(C)(C)C5CC[C@]43C)C2C1 (some centres not stated) 0
CC(=O)SCC(Cc1ccccc1)C(=O)NCC(=O)OCc1ccccc1 (configuration not stated) 0

Two entries picked at random from those above, as already listed:
Dopaminergic neuron differentiation score, inactive:
COc1ccc2[nH]c([S@@+]([O-])Cc3ncc(C)c(OC)c3C)nc2c1 0
CCOc1ccc(NC(=O)CC(C)O)cc1 (configuration not stated) 0
